PubChem BioAssay AID1159584 | Peter MacCallum Cancer Centre – 2016

Screen: 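Knock-downs that harm CDH1-null cells more than parental MCF10A cells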 (primary screen)
System: human MCF10A breast epithelial cells, parental and CDH1-null
Knock-down reagent: siRNA against human genes
Measurement: 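Cell viability by CellTiter-Glo ATP luminescence, each line scaled to the mean of mock wells across plates, then CDH1-null over parental ratio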
Direction: CDH1-null / parental viability ratio: higher = CDH1-null cells survive relatively better than parental; CDH1-null viability vs mock: higher = more viable CDH1-null cells; parental viability vs mock: higher = more viable parental cells
Here is one part, drawn at random, of about 18,000 reagents. Not given: the amount of reagent, the time to read-out.

target gene	PubChem SID	CDH1-null / parental viability ratio	CDH1-null viability vs mock (fraction of mock)	parental viability vs mock (fraction of mock)
LCLAT1	SID134314881	1.04	1.09	1.05
UNC13C	SID135625313	0.97	0.56	0.58
OXLD1	SID152155272	0.74	0.54	0.73
ASB18	SID135625157	1.03	0.74	0.72
ZNG1E	SID135624527	0.68	0.56	0.82
CALCOCO1	SID134312161	0.86	0.78	0.91
B4GALNT3	SID135623495	0.9	0.77	0.86
CLCN6	SID152152470	1.2	0.97	0.81
FBXO43	SID152147315	1.03	0.89	0.86
ZNF382	SID135623563	1	0.45	0.45
IL19	SID152150563	1.45	0.96	0.66
RAB39A	SID134326569	1.13	0.61	0.54
C16orf78	SID134320247	0.91	0.78	0.86
VAMP8	SID135622548	1.07	0.86	0.8
CHRNB1	SID134311561	1.34	1.18	0.88
SGMS1	SID134323262	1.16	0.66	0.57
DAW1	SID135623408	0.96	0.86	0.9
CARD17P	SID135625306	0.97	0.76	0.78
TSC22D2	SID135624119	1.04	0.86	0.83
STEAP3	SID152155372	1.09	1	0.92
HEXIM1	SID152148625	0.92	0.73	0.79
CRB3	SID135623303	0.78	0.28	0.36
STAMBPL1	SID152152598	0.97	0.6	0.62
ETNK2	SID56478982	0.98	0.54	0.55
FSD1	SID135622722	1.3	0.95	0.73
KCNMB3	SID134313728	1.16	0.88	0.76
RASD1	SID134314441	1.07	0.64	0.6
ANXA2R	SID152153968	0.96	0.73	0.76
WFDC2	SID152149554	0.88	0.68	0.77
RNF168	SID135621328	1	0.98	0.98
ERICH5	SID134322340	0.96	0.7	0.73
OLR1	SID152148608	1.03	0.8	0.78
TTC7A	SID135624727	1.07	0.6	0.56
KLK9	SID135621105	1.06	0.84	0.79
ZBTB47	SID134320519	0.79	0.92	1.17
C19orf33	SID134325797	1.29	0.62	0.48
OR4S1	SID152148820	1.23	0.9	0.73
FBXW10B	SID135625056	1.54	1	0.65
KDELR1	SID152154841	1.05	0.97	0.92
RPS18	SID135622219	1.19	0.31	0.26
KLK12	SID135621101	1.09	0.81	0.74
MAP9	SID152156184	1.02	1.1	1.08
FIGN	SID152151499	1.1	0.55	0.5

Records listed so far whose target name starts with T or t:
target gene	PubChem SID	CDH1-null / parental viability ratio	CDH1-null viability vs mock (fraction of mock)	parental viability vs mock (fraction of mock)
TSC22D2	SID135624119	1.04	0.86	0.83
TTC7A	SID135624727	1.07	0.6	0.56

The listing continues.
target gene	PubChem SID	CDH1-null / parental viability ratio	CDH1-null viability vs mock (fraction of mock)	parental viability vs mock (fraction of mock)
PPP4R2	SID152150661	1.1	0.88	0.8
ZIM3	SID134312236	0.73	0.64	0.88
CPEB2	SID134322979	0.97	0.64	0.66
PLA2G4D	SID135621604	0.7	0.4	0.57
CXCL8	SID134310615	0.81	0.48	0.59
PLA2G1B	SID134313721	1.1	0.74	0.67
RBM10	SID134313901	1.17	0.42	0.36
PNRC1	SID134323684	1.05	0.68	0.65
BTG3	SID134322944	0.98	0.94	0.96
SLCO4A1	SID134312483	0.88	1	1.13
INPP5D	SID152151778	1.19	0.88	0.74
OBP2A	SID152154843	0.82	0.62	0.76
TVP23B	SID135624084	0.87	0.81	0.93
OR10G8	SID152151217	1.13	1.04	0.92
BHLHE40	SID134314891	0.92	0.9	0.98
TMEM178A	SID135623170	0.99	0.8	0.81
E2F7	SID152151106	1.09	1.02	0.94
GRIA2	SID152146942	1.11	0.78	0.7
GK2	SID56479273	0.96	0.89	0.93
CEP126	SID152154461	1.29	1.28	0.99
CD300LG	SID152155569	1.17	0.94	0.8
DPEP1	SID152150263	1.32	0.82	0.62
EEF2KMT	SID134326905	0.99	0.88	0.89
GIMAP7	SID152150668	0.85	0.61	0.72
EGR2	SID134311851	1.1	0.92	0.84
